These results got no clear call from the source, so the numbers are uncertain.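 How the source made its calls: active means compound whose half-maximal dose for viability loss stays within twice the top tested dose at all three treatment times; inconclusive means treatment times disagree in their calls; inactive means inactive at every treatment time.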
Assay: cytotoxicity in SNB-19 CNS tumor cells – cell-based, Alamar Blue fluorescence, 8/24/48 h, dry powder, HRAS target identification, dose response (AID 720600)
Conditions: SNB-19 viability, 8-48 h; at 35 µM (top of the series)

SMILES | activity change, negative = cytotoxicity
COC(=O)c1ccc([C@@H]2c3[nH]c4ccccc4c3C[C@@H](C(=O)OC)N2C(=O)CCl)cc1 | inconclusive: -75%
Cc1onc(C(=O)N2CCN(C(c3ccc(Cl)cc3)c3ccc(Cl)cc3)CC2)c1[N+](=O)[O-] | inconclusive: -67.1%
